Not every detail of the peptide structures is certain; ends, links or a residue may be inferred. Residues, ends and D or L forms follow the SMILES beside them.
Assays:
[1] = test system: mice with dry eye disease; assay: Corneal fluorescein staining (CFS) score in mice with dry eye disease, dose and duration study, Example 5; type: in vivo; settings: for improvement of dry eye disease (CFS score) relative to saline: first 7 days of treatment
[2] = test system: mice induced with dry eye disease; assay: Corneal fluorescein staining (CFS) score in mice with induced dry eye disease, Example 4; type: in vivo; settings: twice daily, days 4-12
[3] = test system: human corneal epithelial cells; assay: Co-culture of human corneal epithelial cells and Th17 cells, density and morphology by microscopy, Examples 2 and 3; type: cell-based; settings: peptide at all concentrations: 0.1 μM, 1 μM, 10 μM and 100 μM; 24 hours of co-culture; FIGS. 5C-5F
Procedure: A co-culture of human corneal epithelial cells and Th17 cells was prepared, to mimic the in vivo interaction between Th17 cells and cornea tissue in dry eye disease. The therapeutic efficacy of an IL-17 inhibitor to protect the human corneal epithelial cells from Th17-induced damage was tested. Immortalized human corneal epithelial cells were obtained. To acquire human Th17 cells, naïve CD4+ T cells were first purified from primary human peripheral blood mononuclear cells (StemCell) by negative selection using MACS separation, follow by in vitro polarization to Th17 cells using human Th17 cell differentiation kit (RnD Systems) in X-VIVO 15 medium (Lonza). Successful differentiation of human Th17 cells was confirmed by flow cytometry before co-culture. At about 80% confluence of human corneal epithelial cell culture, 1×10^5 Th17 cells were added, with and without an IL-17 inhibitor. After 24 hours of co-culture in the presence of the IL-17 inhibitor, the density and morphology of human corneal epithelial cells were observed under a bright-light inverted microscope equipped with a camera.
A co-culture of human corneal epithelial cells and Th17 cells was prepared, to mimic the in vivo interaction between Th17 cells and cornea tissue in dry eye disease. The therapeutic efficacy of an IL-17 inhibitor to protect the human corneal epithelial cells from Th17-induced damage was tested. […]

[4] = group with cessation of treatment at day 7

Compound: CC[C@H](C)[C@H](NC(=O)[C@H](Cc1c[nH]c2ccccc12)NC(=O)[C@H](CC(=O)O)NC(=O)[C@H](Cc1c[nH]c2ccccc12)NC(=O)[C@H](CC(C)C)NC(=O)[C@H](CC(=O)O)NC(=O)[C@H](C)NC(=O)[C@@H]1CCCN1C(=O)[C@@H](NC(=O)[C@@H](NC(=O)[C@@H](NC(=O)[C@H](Cc1c[nH]cn1)NC(=O)[C@@H](N)C(C)C)C(C)C)[C@@H](C)O)[C@@H](C)CC)C(=O)N[C@@H](CC(N)=O)C(=O)N[C@@H](CCCCN)C(=O)O [SEQ ID NO: 1, VHVTIPADLWDWINK] (H-VHVTIPADLWDWINK-OH)
- improvement of dry eye disease (CFS score) relative to saline ([1]; 50 μM twice daily): no or temporary improvement relative to treatment with saline twice daily
- improvement of dry eye disease (CFS score) relative to saline ([1]; 250 μM once daily): no or temporary improvement relative to treatment with saline twice daily
- course of disease severity (CFS score) over the 21 day study ([1]; 250 μM twice daily for 21 days): Continued improvement in the disease severity, and inhibition of disease progression
- course of disease severity (CFS score) over the 21 day study ([1]; 250 μM twice daily until day 7, vehicle thereafter): return of disease severity and continued progression of the disease
- improvement of dry eye disease (CFS score) relative to saline ([1]; 250 μM twice daily): improved the disease, as seen by the marked decrease in CFS scores
- CFS score (NEI/Industry Workshop scale) at days 18-21 ([1]; 250 μM twice daily, treated to day 21): 2.5 to 3
- CFS score (NEI/Industry Workshop scale) at day 7 ([1]; 250 μM twice daily, treatment for 7 days, initial CFS score around 8): 4.5-5
- improvement of dry eye disease (CFS score) relative to saline ([1]; 500 μM once daily): improved the disease, as seen by the marked decrease in CFS scores
- disease resolution ([1]; dosed daily, FIG. 8): resolved the condition and achieved near disease resolution
- time of treatment until CFS score was approaching that of subjects with no dry eye disease ([1]; dosed daily, initial CFS score of around 8, subjects with no disease about 2): ≤ 9 days
- CFS score (NEI/Industry Workshop scale) at day 7 [1, 4]: 4.5
- CFS score (NEI/Industry Workshop scale) at day 14 [1, 4]: 7
- progression of dry eye disease (CFS score) compared to vehicle ([2]; 0.05 wt % in phosphate-buffered saline): effectively ameliorated the progression of dry eye disease compared to the vehicle treated cohort
- progression of dry eye disease (CFS score) compared to vehicle ([2]; 0.1 wt % in phosphate-buffered saline): effectively ameliorated the progression of dry eye disease compared to the vehicle treated cohort
- protection of human corneal epithelial cells from Th17-induced damage (cell density and morphology) [3]: protected the human corneal epithelial cells from Th17 mediated corneal damage
